Reference: paper PMC12006517

Protein sequences, listed by entry. Tags and fused reporters are not part of them.
UniProt Q93008: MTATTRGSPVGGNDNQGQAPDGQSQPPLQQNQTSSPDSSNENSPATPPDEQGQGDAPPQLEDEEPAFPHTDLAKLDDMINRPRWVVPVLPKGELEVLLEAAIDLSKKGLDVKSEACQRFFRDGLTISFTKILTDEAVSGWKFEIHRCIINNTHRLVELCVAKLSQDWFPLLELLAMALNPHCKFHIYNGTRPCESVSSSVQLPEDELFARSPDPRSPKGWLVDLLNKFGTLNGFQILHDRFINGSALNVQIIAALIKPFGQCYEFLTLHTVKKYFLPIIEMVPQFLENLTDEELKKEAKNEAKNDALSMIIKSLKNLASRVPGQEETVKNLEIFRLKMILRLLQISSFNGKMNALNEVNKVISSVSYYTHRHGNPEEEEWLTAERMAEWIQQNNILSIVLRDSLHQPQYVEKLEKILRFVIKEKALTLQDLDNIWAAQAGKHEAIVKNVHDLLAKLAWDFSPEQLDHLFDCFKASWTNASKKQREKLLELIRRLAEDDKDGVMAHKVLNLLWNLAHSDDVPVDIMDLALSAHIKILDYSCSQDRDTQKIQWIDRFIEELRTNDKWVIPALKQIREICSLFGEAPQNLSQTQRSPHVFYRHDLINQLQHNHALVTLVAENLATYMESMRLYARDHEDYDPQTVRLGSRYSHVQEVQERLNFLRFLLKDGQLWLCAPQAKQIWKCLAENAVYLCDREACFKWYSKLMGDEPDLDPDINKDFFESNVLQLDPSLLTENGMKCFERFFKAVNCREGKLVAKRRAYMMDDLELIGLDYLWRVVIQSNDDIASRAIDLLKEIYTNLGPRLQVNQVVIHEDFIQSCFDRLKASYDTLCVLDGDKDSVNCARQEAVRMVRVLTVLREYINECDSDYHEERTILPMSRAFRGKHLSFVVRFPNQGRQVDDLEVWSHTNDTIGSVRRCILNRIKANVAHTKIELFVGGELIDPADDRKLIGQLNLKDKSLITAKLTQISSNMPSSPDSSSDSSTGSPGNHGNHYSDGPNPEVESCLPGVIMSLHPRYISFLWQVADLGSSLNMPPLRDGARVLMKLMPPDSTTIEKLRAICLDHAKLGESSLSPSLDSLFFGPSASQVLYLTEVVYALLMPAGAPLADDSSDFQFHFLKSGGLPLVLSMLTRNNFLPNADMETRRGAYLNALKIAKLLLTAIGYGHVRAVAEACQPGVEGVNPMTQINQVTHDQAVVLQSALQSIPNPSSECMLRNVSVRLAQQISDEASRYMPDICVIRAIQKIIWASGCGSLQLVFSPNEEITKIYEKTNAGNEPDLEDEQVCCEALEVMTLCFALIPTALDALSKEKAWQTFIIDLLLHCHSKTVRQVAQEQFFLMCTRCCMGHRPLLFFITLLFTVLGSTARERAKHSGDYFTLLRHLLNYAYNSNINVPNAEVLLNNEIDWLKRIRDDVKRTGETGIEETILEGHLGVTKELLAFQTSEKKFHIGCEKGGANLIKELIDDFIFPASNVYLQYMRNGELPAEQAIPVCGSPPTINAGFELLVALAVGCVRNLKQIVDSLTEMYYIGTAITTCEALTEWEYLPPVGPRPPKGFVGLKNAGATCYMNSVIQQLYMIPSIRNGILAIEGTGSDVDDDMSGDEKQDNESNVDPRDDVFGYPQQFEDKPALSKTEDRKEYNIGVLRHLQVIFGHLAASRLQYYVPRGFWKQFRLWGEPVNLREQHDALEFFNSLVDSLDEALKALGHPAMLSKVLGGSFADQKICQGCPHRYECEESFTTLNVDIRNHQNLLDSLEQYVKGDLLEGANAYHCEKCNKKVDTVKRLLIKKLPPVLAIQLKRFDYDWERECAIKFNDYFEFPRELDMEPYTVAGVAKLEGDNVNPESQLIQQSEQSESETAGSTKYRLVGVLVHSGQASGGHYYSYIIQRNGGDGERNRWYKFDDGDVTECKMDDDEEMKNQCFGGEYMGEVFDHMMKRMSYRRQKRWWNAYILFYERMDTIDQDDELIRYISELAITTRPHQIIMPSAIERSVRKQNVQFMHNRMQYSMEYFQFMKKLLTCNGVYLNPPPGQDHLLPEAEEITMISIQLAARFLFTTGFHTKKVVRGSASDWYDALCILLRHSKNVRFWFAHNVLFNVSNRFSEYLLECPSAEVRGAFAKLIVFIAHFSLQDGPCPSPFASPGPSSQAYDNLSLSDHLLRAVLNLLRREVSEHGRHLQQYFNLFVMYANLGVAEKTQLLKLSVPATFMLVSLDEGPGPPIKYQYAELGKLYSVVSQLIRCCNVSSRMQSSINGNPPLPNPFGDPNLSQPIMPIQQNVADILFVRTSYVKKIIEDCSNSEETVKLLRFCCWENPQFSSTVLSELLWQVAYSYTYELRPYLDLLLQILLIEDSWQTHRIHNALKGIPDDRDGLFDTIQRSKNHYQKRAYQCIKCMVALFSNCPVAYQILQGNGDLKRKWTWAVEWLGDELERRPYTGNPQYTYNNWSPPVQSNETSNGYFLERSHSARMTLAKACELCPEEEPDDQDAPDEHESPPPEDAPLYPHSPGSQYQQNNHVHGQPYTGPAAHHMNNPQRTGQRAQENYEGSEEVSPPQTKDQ
UniProt Q99814: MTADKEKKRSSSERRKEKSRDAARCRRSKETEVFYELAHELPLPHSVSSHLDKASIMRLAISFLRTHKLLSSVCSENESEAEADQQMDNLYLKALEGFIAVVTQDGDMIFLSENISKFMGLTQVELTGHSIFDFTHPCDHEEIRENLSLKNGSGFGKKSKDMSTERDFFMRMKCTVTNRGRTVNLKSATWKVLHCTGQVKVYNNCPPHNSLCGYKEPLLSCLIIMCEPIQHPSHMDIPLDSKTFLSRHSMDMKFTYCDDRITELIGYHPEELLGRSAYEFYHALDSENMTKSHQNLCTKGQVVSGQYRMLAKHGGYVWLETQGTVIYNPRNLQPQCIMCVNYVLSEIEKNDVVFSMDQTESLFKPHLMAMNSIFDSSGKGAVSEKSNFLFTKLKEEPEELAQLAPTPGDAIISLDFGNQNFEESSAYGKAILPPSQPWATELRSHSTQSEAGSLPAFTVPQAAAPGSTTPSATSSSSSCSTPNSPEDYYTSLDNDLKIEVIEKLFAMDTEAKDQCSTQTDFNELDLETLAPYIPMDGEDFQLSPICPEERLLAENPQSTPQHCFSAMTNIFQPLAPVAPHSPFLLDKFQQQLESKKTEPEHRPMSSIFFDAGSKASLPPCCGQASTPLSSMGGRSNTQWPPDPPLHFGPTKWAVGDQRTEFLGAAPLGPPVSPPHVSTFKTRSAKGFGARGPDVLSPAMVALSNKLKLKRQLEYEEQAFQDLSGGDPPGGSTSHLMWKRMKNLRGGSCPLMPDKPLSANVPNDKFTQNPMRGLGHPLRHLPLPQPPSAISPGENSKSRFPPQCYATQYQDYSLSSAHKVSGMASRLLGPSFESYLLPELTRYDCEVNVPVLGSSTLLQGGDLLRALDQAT

How the values were obtained:
[1] = biological target: Flag-tagged full length USP9X wild-type (UniProt Q93008); test: affinity purification with mass spectrometry; Flag-tagged USP9X or HIF-2α transfected into HEK293T for 48 h; lysis buffer 50 mM Tris-HCl pH 7.4, 150 mM NaCl, 5 mM EDTA, 0.5% NP-40; Flag-M2 beads, eluted with FLAG peptide; in-gel digestion, Q Exactive Plus
Flag-tagged HIF-2α = Flag-tagged HIF-2α (UniProt Q99814); test: as above

binding [1]: binds
Molecule: HIF-2α (endogenous, HEK293T) (from UniProt Q99814 1-870)

binding (Flag-tagged HIF-2α): binds
Molecule: USP9X (endogenous, HEK293T) (from UniProt Q93008 1-2554) (enzyme)

binding [1]: binds
B1: CEP131 (endogenous, HEK293T) (protein, UniProt Q9UPN4 1-1083)
chain: MKGTRAIGSVPERSPAGVDLSLTGLPPPVSRRPGSAATTKPIVRSVSVVTGSEQKRKVLEATGPGGSQAINNLRRSNSTTQVSQPRSGSPRPTEPTDFLMLFEGSPSGKKRPASLSTAPSEKGATWNVLDDQPRGFTLPSNARSSSALDSPAGPRRKECTVALAPNFTANNRSNKGAVGNCVTTMVHNRYTPSERAPPLKSSNQTAPSLNNIIKAATCEGSESSGFGKLPKNVSSATHSARNNTGGSTGLPRRKEVTEEEAERFIHQVNQATVTIQRWYRHQVQRRGAGAARLEHLLQAKREEQRQRSGEGTLLDLHQQKEAARRKAREEKARQARRAAIQELQQKRALRAQKASTAERGPPENPRETRVPGMRQPAQELSPTPGGTAHQALKANNTGGGLPAAGPGDRCLPTSDSSPEPQQPPEDRTQDVLAQDAAGDNLEMMAPSRGSAKSRGPLEELLHTLQLLEKEPDVLPRPRTHHRGRYAWASEVTTEDDASSLTADNLEKFGKLSAFPEPPEDGTLLSEAKLQSIMSFLDEMEKSGQDQLDSQQEGWVPEAGPGPLELGSEVSTSVMRLKLEVEEKKQAMLLLQRALAQQRDLTARRVKETEKALSRQLQRQREHYEATIQRHLAFIDQLIEDKKVLSEKCEAVVAELKQEDQRCTERVAQAQAQHELEIKKLKELMSATEKARREKWISEKTKKIKEVTVRGLEPEIQKLIARHKQEVRRLKSLHEAELLQSDERASQRCLRQAEELREQLEREKEALGQQERERARQRFQQHLEQEQWALQQQRQRLYSEVAEERERLGQQAARQRAELEELRQQLEESSSALTRALRAEFEKGREEQERRHQMELNTLKQQLELERQAWEAGRTRKEEAWLLNREQELREEIRKGRDKEIELVIHRLEADMALAKEESEKAAESRIKRLRDKYEAELSELEQSERKLQERCSELKGQLGEAEGENLRLQGLVRQKERALEDAQAVNEQLSSERSNLAQVIRQEFEDRLAASEEETRQAKAELATLQARQQLELEEVHRRVKTALARKEEAVSSLRTQHEAAVKRADHLEELLEQHRRPTPSTK

No constants are given. Whether binding was seen depends on the method and setting. In cells and extracts the contact can be indirect. A yes stands for co-enrichment or nearness to the bait. Other partners may have been found. One block for each molecule: values may come before it.
